Measurements taken from PubChem BioAssay AID590 (National Center for Advancing Translational Sciences (NCATS), 2007).
In all, about 59,000 compounds went through this assay and about 6,500 (11%) were called active. Inconclusive results, whose numbers are uncertain, are shown with a selection of clear calls. No stated cut-off is given here; in the data, active means max dye-equivalent concentration above about 10 nM; inconclusive means mostly about 1.1 nM to 9.6 nM; inactive means weaker than that.

Experiment: qHTS Assay for Spectroscopic Profiling in A350 Spectral Region
Conditions: Compound autofluorescence, 340/450 nm, Alexa 350 dye-equivalents; active compounds read high
Excerpt: NIH Molecular Libraries Screening Centers Network [MLSCN]
NIH Chemical Genomics Center [NCGC]
Occasionally, the artifactual effect may originate from the compounds own spectral or other biophysical properties which generally tend to track its assay concentration. Pre-screening/profiling the library with respect to the compounds spectral properties should help one exclude false positives early on. While the most informative fluorescent profiling data set is obtained by performing a full excitation and emission scan of each well by using a monochromator-based plate reader, such an approach is practical only on a very limited scale as scanning each well requires long time. An alternative approach, applied here, is to perform plate reader scans using selected excitation and emission wavelength pairs to generate a multidimensional relational database that correlates compound concentration and the respective relative fluorescence intensity at a given wavelength set. A standard curve of Alexa 350 (A 350) present on each plate as six-point concentration series, was used to compute a normalized fluorescence response, termed dye-equivalent concentration, for each compound at each concentration.
NCGC Assay Protocol Summary:
100 mM Tris buffer, pH 8.0
The wells in columns 1 through 4 of a Kalypsys polypropylene 1536-well compound plate were filled with standard solutions of fluorophore corresponding to the spectral region of interest. Solutions of A 350 were placed in the following wells: I1, J1: 3 mM, I2, J2: 300 uM, I3, J3: 30 uM, I4, J4: zero (DMSO), K1, L1: 3 uM, K2, L2: […], K3, L3: 300 nM, K4, L4: zero (DMSO).
Six uL of buffer were dispensed to 1536-well Greiner black plates. Compounds and dye standards (23 nL) were transferred via Kalypsys PinTool. The plates were incubated for 15 min at room temperature, and then read on ViewLux (Perkin-Elmer) High-throughput CCD imager using 340 nm and 450 nm excitation and emission filter set.
Keywords: NIH Roadmap, MLSCN, MLI, MLSMR, qHTS, NCGC, A350, A-350, Fluorescent Profiling.

Structure (SMILES) | max dye-equivalent concentration
COc1ccc(-n2nnnc2SCC(=O)Nc2nnc(C)s2)cc1OC | inconclusive: 3.6 nM
OCc1cn(-c2ccccc2)nc1-c1ccc2c(c1)OCCO2 | inactive
Nc1[nH]nc2nc(N3CCCC3)nc(-c3ccccc3)c12 | inactive
Cc1cccc(-c2nc(C#N)c(NC3CCCCC3)o2)c1 | inconclusive: 5.7 nM
CCN1CCN(c2nc3c(c(=O)n(C)c(=O)n3C)n2CCSc2nccc(C)n2)CC1 | inactive
Brc1ccc(-c2nnc3n2-c2ccccc2CC3)cc1 | inconclusive: 1.4 nM
Cc1nc2nc(COc3ccccc3)[nH]n2c(=O)c1C | inconclusive: 9.2 nM
O=C(Cn1c(CN2CCCCC2)nc2ccccc2c1=O)NCc1ccco1 | inactive
CN1CCN(C(=O)CN(c2cccc(Cl)c2)S(=O)(=O)c2ccccc2)CC1 | inconclusive: 4.9 nM
COc1ccc(OC)c(C2C(C(C)=O)=C(O)C(=O)N2Cc2cccnc2)c1 (centres undefined) | inactive
Cc1cc(OC(=O)c2ccc(S(=O)(=O)N(C)C)cc2)cc(=O)o1 | inactive
CCCCn1c(SCC(=O)c2ccc(OC)cc2OC)nc2cc(S(N)(=O)=O)ccc21 | inconclusive: 2.7 nM
CCCCCCS(=O)[C@H]1CS(=O)(=O)C[C@@H]1S(=O)CCCCCC (some centres undefined) | inconclusive: 1.9 nM
O=C(CCCCCNc1nc(=S)[nH]c2ccccc12)N1CCN(c2ccccn2)CC1 | inactive
COc1cc(CN2CCN(c3cccc(Cl)c3)CC2)cc(OC)c1OC | inconclusive: 3.6 nM
COCCn1cc(C(=O)c2ccccc2OCC(=O)Nc2cc(C)on2)cc(C#N)c1=O | inconclusive: 3.3 nM
c1ccc2c(c1)c1ccccc1n2Cn1c2ccccc2c2ccccc21 | inactive
Cc1cc(C(=O)N2CCN(c3ccccc3)CC2)no1 | inconclusive: 1.3 nM
Cc1nc(NCCNC(=O)c2ccco2)c2c(C)c(C)sc2n1 | inconclusive: 6.1 nM
CCCCn1c2c(c(=O)n(C)c1=O)C(c1ccc(OC)cc1)N1CCCCCC1=N2 (centres undefined) | active: 26 nM
CCOc1ccc2cc(C#N)c(SCC(=O)N3CCC(C)CC3)nc2c1 | active: 100 nM
CC(C)(C)c1ccc(OCC(=O)O)c(Cl)c1 | inactive
Cc1cc2cc(OCC(=O)O)ccc2n1C | inconclusive: 1.1 nM
COCC(=O)N(C)c1nnc(-c2cnc(C)cn2)s1 | inconclusive: 3.2 nM

Structure (SMILES) | max dye-equivalent concentration
COCc1cc(C)n(CC(=O)Nc2ccccc2OC)c(=O)c1C#N | inconclusive: 3.7 nM
O=c1c2ccccc2c(C=NC2CCS(=O)(=O)C2)c(O)n1-c1ccccc1 (centres undefined) | inconclusive: 5.7 nM
CC(C)C[C@H](NC(=O)NCc1ccc(Cl)cc1)C(=O)O | inactive
CCOC(=O)N1CCN(C(=O)N2CCOCC2)CC1 | inconclusive: 1.6 nM
Cc1cc(C)n(-c2ccc(C(=O)Nc3ccccn3)cc2)n1 | inconclusive: 1.7 nM
COc1ncc2nc(CCc3ccccc3)c(=O)n(CCC#N)c2n1 | inactive
CC1C(C#N)=C(N)OC2=C1C(=O)CCC2 (centres undefined) | inconclusive: 2.4 nM
COc1ccc(N2C(=O)CCC(C(=O)N(C)C3CCCCC3)C2c2ccc(OC)c(OC)c2)cc1 (centres undefined) | inactive
COc1ccc(N(CC(=O)Nc2ccc(C)cn2)S(=O)(=O)c2c(C)noc2C)cc1 | inactive
Cc1c(-c2ccco2)[n+](=O)c2c(n1[O-])CCC2 | inconclusive: 1.8 nM
COc1cc(CNCCO)ccc1OCC(=O)Nc1ccc(Br)cc1 | inconclusive: 2.6 nM
Cc1cc2n(n1)C(c1ccco1)Nc1ccccc1-2 (centres undefined) | active: 24 nM
O=C(NCC1CCCO1)C(C(=O)c1ccc(F)cc1)n1ccccc1=O (centres undefined) | inconclusive: 2.5 nM
Oc1cc(O)cc(/C=C\c2ccc(O)c(O)c2)c1 | active: 16 nM
Cc1cnc(CNc2cc(-c3ccc(N(C)C)cc3)ncn2)cn1 | inconclusive: 4.6 nM
CN1CCN(/C=N/c2c(C#N)cnn2C)CC1 | inconclusive: 2.5 nM
O=C1CCC(c2ccccc2)(c2ccccc2)CC1 | inactive
N#CC1=C(SCc2ccccc2)NC2=C(C(=O)CCC2)C1c1ccc2c(c1)OCO2 (centres undefined) | inactive
CN(Cc1ccco1)c1ncnc2ccc(-c3cccc(C#N)c3)cc12 | inactive
COCCn1c(=O)c(-c2cccs2)nc2cnc(OC)nc21 | active: 800 nM
Clc1ccc(-c2nnc(SCc3ccon3)o2)c(Cl)c1 | inconclusive: 1.1 nM
CCc1cccc(NC(=O)c2snc3c(=O)[nH]cnc23)c1 | inconclusive: 2.9 nM
CCOc1ccc(OCc2ccc(C(=O)N3CCCC3)o2)cc1 | active: 17 nM
CN(C)c1ccnc2sc3c(=O)n(-c4ccccc4)cnc3c12 | active: 47 nM

Structure (SMILES) | max dye-equivalent concentration
CC(=O)N1CCC2(CC1)CN(c1cccc(-c3ccccc3)c1)C2 | inactive
COC(=O)c1c(N)n(-c2ccc(NC(C)=O)cc2)c2nc3ccccc3nc12 | active: 2700 nM
COCCCn1c2nc3ccccc3nc2c2c(=O)n(-c3ccccc3OC)cnc21 | active: 510 nM
O=C(O)CCN1Cc2ccccc2C1=O | inconclusive: 1.4 nM
COC(=O)c1oc2ccc(Br)cc2c1NC(=O)CN1CCN(C)CC1 | inactive
CCc1cc(=O)oc2cc(OC(C)C(=O)O)c(Cl)cc12 (centres undefined) | active: 33 nM
CCN1/C(=C\C(C)=O)Sc2ccc(OC)cc21 | inconclusive: 4.5 nM
CCOC(=O)c1cc(-c2nnc(SCC(=O)Nc3ccc(F)cc3)o2)c(C)nc1C | inconclusive: 1.1 nM
Cc1noc(C)c1C(=O)Nc1nc(C23CC4CC(CC(C4)C2)C3)cs1 | inconclusive: 1.4 nM
N#CC1=C(N)C2=C(N3CCCCC3)CCCC2C1(C#N)C#N (centres undefined) | inconclusive: 6.9 nM
CCC1CCCCN1CCn1c(=S)[nH]c2cc(OC)c(OC)cc2c1=O (centres undefined) | inconclusive: 1.5 nM
COC(=O)c1ccc(Cn2nc(C)c(Br)c2C)cc1 | inconclusive: 1.2 nM
CCC1(C)Cc2c(sc3c2c(=O)n(C)c2nnc(SCC(=O)c4ccc(Cl)cc4)n32)CO1 (centres undefined) | inactive
COc1ccccc1/C=c1\sc2nc(-c3cccs3)nn2c1=O | inconclusive: 8.6 nM
N=C(N)c1ccc(/C=C\c2ccc(C(=N)N)cc2)cc1 | active: 94 nM
COc1ccc2c(c1OC)C(=O)NC(C)=C(C(=O)OC(C)(C)C)C2O (centres undefined) | inactive
Cc1ccc2c(c1)C1C=CCC1C(C(=O)O)N2 (centres undefined) | inactive
Cc1ccc2[nH]c3c(N4CCN(Cc5ccc6c(c5)OCO6)CC4)ncnc3c2c1 | inconclusive: 5.1 nM
CCOc1ccccc1N1CCN(C(=O)c2cc[n+]([O-])cc2)CC1 | inactive
Cc1ccc(CSc2nc3c(c(=O)[nH]2)C(c2ccncc2)C2=C(CCCC2=O)N3)cc1 (centres undefined) | active: 86 nM
O=C(O)C(=O)/C=C(\O)c1ccc(Br)cc1 | inactive
Clc1ccccc1-c1nn2c(-c3ccccn3)nnc2s1 | inconclusive: 2 nM
Cc1nn2c3c(cnc2c1-c1ccc(Cl)cc1)C(=O)CC(c1ccco1)C3 (centres undefined) | active: 19 nM
Cc1ccc(C)c(NC(=O)CSc2nnc(-c3ccncc3)n2N)c1 | inconclusive: 1.1 nM

Structure (SMILES) | max dye-equivalent concentration
O=C(c1ccco1)N1CCN(c2nc3ccccc3c(=O)n2-c2ccccc2)CC1 | inconclusive: 2.8 nM
CCOc1cc2c(cc1OCC)C(C(=O)O)C(c1cc(OC)c(OC)c(OC)c1)N(C)C2=O (centres undefined) | inconclusive: 1.4 nM
CCn1nc(NC(=O)c2ccncc2)c2cc3cc(C)ccc3nc21 | inconclusive: 7.5 nM
O=c1[nH]c(CN2CCN(C/C=C/c3ccccc3)CC2)nc2ccccc12 | active: 13 nM
COc1ccc(CNc2nc3nc(-c4ccccc4)cc(=O)n3[nH]2)cc1OC | active: 270 nM
CN=c1sc2ccccc2n1CC(O)COCc1ccco1 (centres undefined) | inconclusive: 2.7 nM
CCOC(=O)N1CCC(NC(=O)c2cc(C(=O)NCc3cccc(Cl)c3)ccc2CO)CC1 | inconclusive: 1.9 nM
CCCC(=O)Nc1cccc(-c2cn3ccsc3n2)c1 | inactive
Cc1nn(-c2ccc(F)cc2F)c2c1-c1nc(N3CCCC3)ncc1CC2 | active: 230 nM
O=C(O)c1ccccc1N[C@H](c1ccccc1)c1ccc2cccnc2c1O | inactive
CCn1c(SCC(=O)N2CCc3ccccc32)nnc1-c1c[nH]c2ccccc12 | inconclusive: 3.5 nM
Cc1ccc(N2CC(C)Cn3c2nc2c3c(=O)n(CC(=O)OCc3ccccc3)c(=O)n2C)cc1C (centres undefined) | inactive
COc1ccc(C)cc1-n1nnnc1SC/C(O)=C(\C#N)c1nc2ccccc2[nH]1 | inconclusive: 3.8 nM
CCCCCN(C(=O)NC(=O)Nc1ccccc1C)S(C)(=O)=O | inactive
O=c1c(-c2cc(F)cc(F)c2)nc2cnc(N3CCNCC3)nc2n1CCc1ccccc1 | active: 14 nM
COc1cc(C(=O)Nc2c(-c3ccccn3)c(=O)c3ccccc3n2C)cc(OC)c1OC | inactive
O=C1NC(c2ccccc2Cl)Nc2ccccc21 (centres undefined) | active: 790 nM
CCN1C(=O)N[C@@H](c2ccccc2)C1=O | inactive
CCOC(=O)Cn1cnc2sc3c(c2c1=O)CCC3 | inactive
CCc1c(C)nc2cc(-c3ccc(OC)c(OC)c3)nn2c1N1CCCC1 | inconclusive: 1.5 nM
O=C1NCCCc2c1oc1cc(Br)c(O)c(Br)c21 | inconclusive: 9.5 nM
COc1ccc(-c2cc(C(=O)N3CCN(c4ccccn4)CC3)c3ccccc3n2)cc1 | inconclusive: 9 nM

Given as comma-separated lines: entries from further up
Structure (SMILES),max dye-equivalent concentration
Cc1cc2cc(OCC(=O)O)ccc2n1C,inconclusive: 1.1 nM
COCC(=O)N(C)c1nnc(-c2cnc(C)cn2)s1,inconclusive: 3.2 nM
COCc1cc(C)n(CC(=O)Nc2ccccc2OC)c(=O)c1C#N,inconclusive: 3.7 nM
O=c1c2ccccc2c(C=NC2CCS(=O)(=O)C2)c(O)n1-c1ccccc1 (centres undefined),inconclusive: 5.7 nM
CC(C)C[C@H](NC(=O)NCc1ccc(Cl)cc1)C(=O)O,inactive
CCOC(=O)N1CCN(C(=O)N2CCOCC2)CC1,inconclusive: 1.6 nM
